Reference: doi:10.1101/068262 (bioRxiv, 2016)
Results are given in words; binding and its absence hold for the method and conditions named. In cells and extracts the contact can be indirect. Where a sequence is shown, tags or fusion partners need not be part of it.

Legend:
Experiment in all cases: co-IP
[1] = biological target: T1, FLAG-AFF4 Δ970-1163 P329G (UniProt Q9UHB7)
T1 sequence: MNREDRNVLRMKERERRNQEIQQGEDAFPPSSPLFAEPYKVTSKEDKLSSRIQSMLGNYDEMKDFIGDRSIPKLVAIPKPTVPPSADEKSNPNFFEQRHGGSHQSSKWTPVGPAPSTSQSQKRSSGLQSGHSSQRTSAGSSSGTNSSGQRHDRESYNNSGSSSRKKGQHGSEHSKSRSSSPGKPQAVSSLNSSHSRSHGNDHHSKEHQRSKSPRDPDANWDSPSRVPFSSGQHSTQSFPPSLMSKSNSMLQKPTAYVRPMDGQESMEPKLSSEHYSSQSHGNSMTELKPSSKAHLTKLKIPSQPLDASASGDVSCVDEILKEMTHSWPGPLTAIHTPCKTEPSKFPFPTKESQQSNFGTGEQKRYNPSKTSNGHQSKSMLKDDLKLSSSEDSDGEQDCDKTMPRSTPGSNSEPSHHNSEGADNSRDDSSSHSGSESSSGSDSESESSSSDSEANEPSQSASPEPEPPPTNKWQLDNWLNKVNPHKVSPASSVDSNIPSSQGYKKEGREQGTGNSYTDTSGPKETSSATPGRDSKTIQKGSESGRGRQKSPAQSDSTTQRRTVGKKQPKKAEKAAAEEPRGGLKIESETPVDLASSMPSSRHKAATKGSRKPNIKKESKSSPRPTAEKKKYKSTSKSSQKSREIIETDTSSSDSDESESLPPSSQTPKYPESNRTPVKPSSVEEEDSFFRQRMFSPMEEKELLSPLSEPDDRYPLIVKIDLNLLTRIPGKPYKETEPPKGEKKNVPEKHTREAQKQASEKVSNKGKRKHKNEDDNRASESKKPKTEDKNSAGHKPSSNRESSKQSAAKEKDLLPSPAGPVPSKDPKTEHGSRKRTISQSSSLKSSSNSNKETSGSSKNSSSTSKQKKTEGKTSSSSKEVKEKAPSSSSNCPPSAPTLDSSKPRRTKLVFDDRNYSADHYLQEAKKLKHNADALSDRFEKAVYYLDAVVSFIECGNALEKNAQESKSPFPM

[2] = biological target: T2, FLAG-AFF4 Δ970-1163 E322H (UniProt Q9UHB7)
T2 sequence: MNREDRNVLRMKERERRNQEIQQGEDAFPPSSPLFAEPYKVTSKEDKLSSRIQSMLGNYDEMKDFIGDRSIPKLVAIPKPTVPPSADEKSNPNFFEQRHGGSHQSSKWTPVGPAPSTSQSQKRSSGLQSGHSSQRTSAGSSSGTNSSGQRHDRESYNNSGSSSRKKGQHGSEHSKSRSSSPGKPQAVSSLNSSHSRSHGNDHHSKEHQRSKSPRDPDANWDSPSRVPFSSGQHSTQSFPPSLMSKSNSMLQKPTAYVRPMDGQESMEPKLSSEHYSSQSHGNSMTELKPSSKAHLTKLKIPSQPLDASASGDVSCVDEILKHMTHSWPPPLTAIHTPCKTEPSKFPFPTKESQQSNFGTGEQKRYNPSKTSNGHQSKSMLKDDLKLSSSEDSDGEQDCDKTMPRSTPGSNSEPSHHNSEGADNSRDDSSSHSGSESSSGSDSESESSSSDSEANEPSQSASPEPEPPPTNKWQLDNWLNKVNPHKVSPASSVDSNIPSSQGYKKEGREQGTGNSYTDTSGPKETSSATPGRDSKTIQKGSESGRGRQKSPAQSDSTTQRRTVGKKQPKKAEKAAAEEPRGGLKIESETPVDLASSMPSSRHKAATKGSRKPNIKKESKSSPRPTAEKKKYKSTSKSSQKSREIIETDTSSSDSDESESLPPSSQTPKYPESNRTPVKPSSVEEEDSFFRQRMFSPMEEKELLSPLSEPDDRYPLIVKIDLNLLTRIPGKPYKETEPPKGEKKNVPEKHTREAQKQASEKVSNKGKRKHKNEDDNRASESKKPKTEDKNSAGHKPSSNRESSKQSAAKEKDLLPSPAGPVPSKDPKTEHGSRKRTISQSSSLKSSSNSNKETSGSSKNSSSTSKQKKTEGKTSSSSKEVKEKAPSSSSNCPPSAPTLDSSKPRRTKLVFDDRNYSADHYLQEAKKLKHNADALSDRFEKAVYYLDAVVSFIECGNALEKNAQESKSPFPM

[3] = biological target: T3, FLAG-AFF4 Δ970-1163 I334D (UniProt Q9UHB7)
T3 sequence: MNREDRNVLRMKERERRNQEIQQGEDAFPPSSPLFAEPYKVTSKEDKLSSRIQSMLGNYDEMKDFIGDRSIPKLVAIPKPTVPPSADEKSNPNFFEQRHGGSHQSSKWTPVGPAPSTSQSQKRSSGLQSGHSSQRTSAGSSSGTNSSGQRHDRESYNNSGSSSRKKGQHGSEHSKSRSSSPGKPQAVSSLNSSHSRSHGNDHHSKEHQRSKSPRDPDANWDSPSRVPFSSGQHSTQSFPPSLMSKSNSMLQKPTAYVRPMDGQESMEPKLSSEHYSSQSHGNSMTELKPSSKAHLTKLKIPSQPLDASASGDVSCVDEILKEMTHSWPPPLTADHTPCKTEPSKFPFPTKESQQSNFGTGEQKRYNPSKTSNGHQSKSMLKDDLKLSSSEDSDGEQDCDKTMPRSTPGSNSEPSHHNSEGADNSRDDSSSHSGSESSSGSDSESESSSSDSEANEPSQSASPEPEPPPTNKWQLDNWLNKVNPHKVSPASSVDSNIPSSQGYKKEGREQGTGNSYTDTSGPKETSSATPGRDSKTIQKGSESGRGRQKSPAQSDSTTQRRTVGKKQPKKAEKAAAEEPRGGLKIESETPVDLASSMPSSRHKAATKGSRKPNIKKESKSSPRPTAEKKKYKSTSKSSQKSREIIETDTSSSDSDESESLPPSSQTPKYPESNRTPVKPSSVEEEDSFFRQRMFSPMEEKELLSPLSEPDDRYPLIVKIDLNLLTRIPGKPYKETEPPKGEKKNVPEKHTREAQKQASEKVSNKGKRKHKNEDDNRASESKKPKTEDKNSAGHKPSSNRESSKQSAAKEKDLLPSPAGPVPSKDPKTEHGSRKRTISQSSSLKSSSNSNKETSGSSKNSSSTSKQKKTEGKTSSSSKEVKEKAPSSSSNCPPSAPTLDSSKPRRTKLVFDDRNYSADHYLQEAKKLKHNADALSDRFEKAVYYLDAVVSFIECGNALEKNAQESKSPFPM

binding [1]: no binding
binding [2]: no binding
binding [3]: no binding
B1: ELL1 in nuclear extracts (protein, UniProt P55199 1-621)
chain: MAALKEDRSYGLSCGRVSDGSKVSVFHVKLTDSALRAFESYRARQDSVSLRPSIRFQGSQGHISIPQPDCPAEARTFSFYLSNIGRDNPQGSFDCIQQYVSSHGEVHLDCLGSIQDKITVCATDDSYQKARQSMAQAEEETRSRSAIVIKAGGRYLGKKVQFRKPAPGATDAVPSRKRATPINLASAIRKSGASAVSGGSGVSQRPFRDRVLHLLALRPYRKAELLLRLQKDGLTQADKDALDGLLQQVANMSAKDGTCTLQDCMYKDVQKDWPGYSEGDQQLLKRVLVRKLCQPQSTGSLLGDPAASSPPGERGRSASPPQKRLQPPDFIDPLANKKPRISHFTQRAQPAVNGKLGVPNGREALLPTPGPPASTDTLSSSTHLPPRLEPPRAHDPLADVSNDLGHSGRDCEHGEAAAPAPTVRLGLPLLTDCAQPSRPHGSPSRSKPKKKSKKHKDKERAAEDKPRAQLPDCAPATHATPGAPADTPGLNGTCSVSSVPTSTSETPDYLLKYAAISSSEQRQSYKNDFNAEYSEYRDLHARIERITRRFTQLDAQLRQLSQGSEEYETTRGQILQEYRKIKKTNTNYSQEKHRCEYLHSKLAHIKRLIAEYDQRQLQAWP
